The record followed here is PubChem BioAssay AID2685 (National Center for Advancing Translational Sciences (NCATS), 2010).

Structures are written as SMILES. The list shows a part of the results. The main result of the screen is listed elsewhere. These columns were measured beside it and carry no call. Compounds called inactive in the main read-out are mostly missing here. Words in brackets tell the shape of the fitted curve; partial curves, single points and poor fits give uncertain potencies.

The experiment can be described thus: qHTS Assay for Lipid Storage Modulators in Drosophila S3 Cells.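 For cell number change: cells counted by Cell Tracker Red CMTPX staining in the red channel.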 The conditions noted are these: BODIPY lipid droplet fluorescence, 18-24 h; for cell number change: measured here: cell count max response, cells fed with added oleic acid. The method in brief: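 Laser-scanning cytometry quantifies lipid droplet accumulation (500–530 nm total intensity; droplet/cell object ratio) in oleic acid-fed (400 uM added) Drosophila S3 cells treated with a concentration series. 20 uM Triacsin C defined 100% inhibition.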

The mark [1] stands for this setting: measured here: lipid fluorescence (Fed channel) AC50, cells fed with added oleic acid.
The mark [2] stands for this setting: measured here: cell number channel AC50, cells fed with added oleic acid.

For the molecule `O=C(O)c1cc(S(=O)(=O)N2CCCCC2)sc1Cl`, the cell number change is -25.4%. The AC50 under setting [1] was 1.16 µM [falling, full curve, poor fit].

As for `COc1ccccc1C1/C(=C(/O)c2ccc(OC(C)C)cc2)C(=O)C(=O)N1c1cc(C)on1` (stereo not drawn), the cell number change came to 8.93%.

For `COc1ccc(/C=C(\C#N)C(=O)Nc2cccc(C)n2)cc1`, the cell number change is -6.85%. Under setting [1], the AC50 was 0.291 µM [falling, full curve]. Take `CCc1ccc(C2NC(c3ccc(CC)cc3)C([N+](=O)[O-])C(C)(C)C2[N+](=O)[O-])cc1` (stereo not drawn): the cell number change worked out at 3.07%. Besides, the concentration at half-maximal activity (AC50) under setting [1] was 0.517 µM [rising, full curve, poor fit].

In the case of `O=C(O)c1cccnc1Nc1ccc(Cl)cc1`, the cell number change worked out at 4.15%. Also, the AC50 under setting [2] is 0.461 µM [rising, single point].

Consider `Cc1ccc(-c2cc(C(=O)Nc3c(C)n(C)n(-c4ccccc4)c3=O)no2)cc1`, for which the cell number change was 38.1%. For the same molecule, under setting [2], the AC50 is 1.84 µM [rising, partial curve]. As to `CC(=O)Cc1nsc(NC(=O)c2ccc(-c3ccc(Cl)c(Cl)c3)o2)n1`, the AC50 under setting [2] was 1.3 µM [rising, full curve]. For the molecule `COc1ccc(CN2CC(C(=O)NCCCN3CCN(C)CC3)CC2=O)cc1` (stereo not drawn), the cell number change is -26.6%. Moreover, the AC50 under setting [1] is 6.51 µM [rising, single point]. Turning to `CCCCN(C(=O)c1cc2c(s1)CCCCC2)c1c(N)n(CC(C)C)c(=O)[nH]c1=O`, the cell number change is -1.28%.

`C=CCNC(=S)NNC(=O)CCC(O)CCCCC` (stereo not drawn): the cell number change came out at 5.21%. Besides, the AC50 under setting [2] was 0.291 µM [rising, full curve]. Moreover, the AC50 under setting [1] was 29.1 µM [rising, single point].

As for `O=C(COC(=O)c1ccc(NS(=O)(=O)c2ccc(Br)s2)cc1)NC1CCCC1`, the cell number change was 28.8%. For the same molecule, under setting [1], the half-maximal activity concentration (AC50) was 16.4 µM [rising, partial curve]. Consider `COc1ccccc1N1CCN(C2CCCN(C(=O)c3ccccn3)C2)CC1` (stereo not drawn), for which the cell number change came to 10.7%. On to `Cc1c(Br)c(O)c(Br)c(O)c1/C=N/n1c(-c2ccccc2)n[nH]c1=S`, for which the cell number change is -41.5%. Further, the AC50 under setting [2] is 29.1 µM [falling, single point]. For the molecule `CCn1c(N)c(C(=O)NC)sc1=S`, the cell number change is -6.63%. The AC50 under setting [1] was 29.1 µM [falling, single point]. Turning to `COc1ccc(S(=O)(=O)N2CCN(c3ccc(F)cc3)CC2)cc1OC`, the cell number change is -11.3%.

On to `CCCCn1c(N)c(N(CC(C)C)C(=O)CC2CCCC2)c(=O)[nH]c1=O`, for which the cell number change came out at 2.81%.

As to `COc1ccc(Nc2c(-c3ccc(C)cc3)nc3cnccn23)cc1`, the AC50 under setting [2] is 0.00411 µM [rising, full curve, poor fit] and the AC50 under setting [1] is 8.2 µM [rising, partial curve].

Take `Brc1ccc(-c2nc(N/N=C/c3cccnc3)c3ccccc3n2)cc1`: the cell number change is -64.3%. Take `O=C(CSc1nnc2c(n1)[nH]c1ccc(F)cc12)Nc1ccccc1F`: the cell number change amounted to 269%. In the case of `CSc1ncccc1C(=O)OCC(=O)NCc1ccccc1`, the cell number change is -8.03%. For the same molecule, the AC50 under setting [1] is 0.517 µM [rising, full curve, poor fit]. For `CC1=C(C(=O)OCC(C)C)C2(O)C(=O)c3ccccc3C2(O)N1` (stereo not drawn), the cell number change was -17.2%. For the same molecule, under setting [2], the AC50 was 0.0731 µM [falling, full curve, poor fit]. Moreover, under setting [1], the AC50 was 0.517 µM [falling, full curve, poor fit]. For `CCOC(=O)COc1cc(Br)c(C2NC(=O)NC(C)=C2C(C)=O)cc1OCC` (stereo not drawn), the cell number change came out at 17%. Moreover, under setting [1], the AC50 was 0.651 µM [falling, single point]. As to `COCCNC(=S)N(CCc1c(C)[nH]c2ccc(C)cc12)Cc1ccco1`, the cell number change was found to be 23.1%. In addition, under setting [2], the concentration at half-maximal activity (AC50) is 0.411 µM [rising, full curve, poor fit]. Moreover, under setting [1], the AC50 is 0.184 µM [rising, full curve, poor fit].

For `O=C(CN1CCN(S(=O)(=O)c2ccc(Br)cc2)CC1)Nc1ccc2c(c1)OCCO2`, the cell number change was -8.63%. Regarding `CCC1=NN(C(=O)c2ccc(Br)cc2)C(O)(c2ccc(C)cc2)C1` (stereo not drawn), the cell number change is 21.3%. `O=Cc1coc2c(ccc3ccccc32)c1=O`: the cell number change stood at 0.472%. The half-maximal activity concentration (AC50) under setting [1] is 6.51 µM [falling, single point]. In the case of `CC(/C=C/c1ccccc1)NC(N)=O` (stereo not drawn), the cell number change came out at 2.83%. Besides, the AC50 under setting [1] is 0.116 µM [falling, full curve]. For the molecule `Cc1ccc(CNC(=O)Cn2cccc2C(=O)c2ccccc2)cc1`, the cell number change is -43.2%. For the same molecule, under setting [2], the AC50 was 25.9 µM [falling, single point]. As to `Cc1ccc(Nc2nnns2)cc1`, the cell number change is -10.9%. The AC50 under setting [1] was 29.1 µM [falling, single point]. With `CCCCn1c(SCc2nnc(-c3ccccc3)o2)nc2c1c(=O)n(C)c(=O)n2C`, the cell number change is -23.3%. Moreover, the AC50 under setting [1] is 20.6 µM [falling, single point]. For the molecule `O=C(CCCC(=O)N1CCc2ccccc21)N1CCc2ccccc21`, the cell number change was determined as 30.1%. Moreover, under setting [2], the AC50 was 18.4 µM [rising, single point].

In the case of `O=C(O)/C=C/c1cn(Cc2ccccc2)nc1-c1cccs1`, the cell number change was -0.541%. Under setting [1], the concentration at half-maximal activity (AC50) was 0.0058 µM [falling, full curve, poor fit]. Take `O=C(NC(=S)Nc1ccccc1Cl)c1csnn1`: the cell number change was found to be 7.35%. Besides, the AC50 under setting [1] was 2.31 µM [rising, partial curve]. On to `CSc1ccc(Cl)c(C(=O)OCC(=O)N2CCN(c3ccccc3)CC2)c1`, for which the cell number change was -0.107%. For `CCOC(=O)c1cnc(SC)nc1Oc1cccc(NS(=O)(=O)c2ccccc2)c1`, the cell number change is -1.81%. The AC50 under setting [1] was 32.6 µM [falling, single point]. `N#Cc1cnn(-c2cccc(Cl)c2)c1N`: the cell number change is -10.3%. `COc1cc(CN2CCCC(N3CCN(c4ccccc4C)CC3)C2)cc(Cl)c1O` (stereo not drawn): the cell number change was determined as 11.1%. As for `O=C(NNC(=O)c1cccnc1)c1ccncc1`, the cell number change came to 16.7%. In the case of `O=C(Cn1nc(Cl)nc1Cl)Nc1ccccc1`, the cell number change is -7.3%.

`CCCCNC(=O)/C(C#N)=C/c1cccnc1`: the AC50 under setting [1] was 29.1 µM [falling, partial curve].

With `Cc1ccc(CN2C(=O)CCC2(C)C(=O)NCc2cccnc2)cc1` (stereo not drawn), the cell number change is 23%. In addition, under setting [2], the concentration at half-maximal activity (AC50) was 4.11 µM [rising, partial curve, poor fit]. On to `CCC(C)c1ccccc1NC(=O)C1CCCO1` (stereo not drawn), for which the cell number change was determined as 11%. The half-maximal activity concentration (AC50) under setting [1] was 4.11 µM [falling, partial curve]. On to `O=C(NCCNC(=O)c1ccc(Br)o1)c1ccc(Br)o1`, for which the concentration at half-maximal activity (AC50) under setting [1] is 29.1 µM [falling, single point].

As for `Cc1ccc(NC(=O)c2ccc3ccccc3n2)nc1`, the cell number change was 138%. The half-maximal activity concentration (AC50) under setting [2] is 9.2 µM [rising, partial curve]. The AC50 under setting [1] is 13 µM [rising, partial curve]. With `CC(=O)c1c(C)oc2ccc(NS(=O)(=O)c3ccc(C)cc3)cc12`, the cell number change came out at 80.4%. Further, the concentration at half-maximal activity (AC50) under setting [2] was 20.6 µM [rising, partial curve]. For the molecule `CCOC(=O)c1sc2ncn(CC(=O)N(CC)CC)c(=O)c2c1C`, the AC50 under setting [1] is 29.1 µM [falling, single point]. `Cc1ccc(C)n1CCN1CCN(CC(=O)Nc2ccc(S(N)(=O)=O)cc2)CC1`: the cell number change was 18.4%.

Regarding `Cn1c(SCc2ccc(F)cc2)nnc1-c1ccncc1`, the AC50 under setting [2] is 6.51 µM [rising, single point]. `Cc1cc(C)cc(N=C2SC(CC(=O)Nc3ccccc3)C(=O)N2CCN2CCOCC2)c1` (stereo not drawn): the cell number change is 29.9%. Take `Cc1csc(NC(=O)CSc2nc3ccccc3s2)n1`: the cell number change is -13.9%. For the same molecule, under setting [1], the AC50 was 32.6 µM [falling, single point]. In the case of `Cc1ccc([N+](=O)[O-])cc1S(=O)(=O)n1ccnc1C`, the cell number change was -33.5%. For the same molecule, under setting [2], the AC50 is 8.2 µM [falling, partial curve, poor fit]. Under setting [1], the concentration at half-maximal activity (AC50) is 10.3 µM [falling, partial curve].

Turning to `CC(C)COCC1CC2(CC(C)C(=O)CC2=O)C(=O)O1` (stereo not drawn), the cell number change turned out to be 1.97%. The AC50 under setting [1] is 8.2 µM [rising, partial curve, poor fit]. As to `N#CCCN1CCC(NC(=O)OCc2ccccc2)CCC1=O` (stereo not drawn), the cell number change was -1.2%. In the case of `Cc1ccc(/C=N/NC(=O)Nc2ccccc2)o1`, the cell number change is 16.1%. Further, the concentration at half-maximal activity (AC50) under setting [1] is 32.6 µM [rising, single point]. Take `Nc1nc(SCC(=O)Nc2ccc(F)cc2)[nH]c(=O)c1NC(=O)c1ccc(F)c(F)c1`: the cell number change amounted to 36.8%. Moreover, the AC50 under setting [2] was 5.8 µM [rising, full curve]. Regarding `COc1cc(CNC(=O)C2CCCC2)cc(OC)c1OC`, the AC50 under setting [1] was 0.651 µM [rising, single point]. On to `COCCCN1CN(S(=O)(=O)c2ccc(Cl)cc2)c2nc3ccccc3nc21`, for which the AC50 is, setting by setting: under setting [2], 4.11 µM [rising, partial curve]; under setting [1], 0.731 µM [rising, full curve]. Consider `N#C/C(=C/c1ccc(N2CCCCC2)o1)C(=O)Nc1ccc2ccccc2c1`, for which the cell number change was -97.5%. For the same molecule, under setting [2], the AC50 is 5.17 µM [falling, full curve]. Further, the half-maximal activity concentration (AC50) under setting [1] is 0.517 µM [falling, full curve].

With `CCCn1nnnc1NCc1ccc(C(C)C)cc1`, the cell number change is -6.87%. Take `CCCCCCNC(=O)CSc1nccn1Cc1ccccc1`: the cell number change was 110%. Further, the half-maximal activity concentration (AC50) under setting [2] is 14.6 µM [rising, partial curve]. Moreover, under setting [1], the AC50 is 16.4 µM [rising, partial curve]. As to `Nc1cc(N)nc(SCC(=O)N2CCc3ccccc32)n1`, the AC50 under setting [2] is 2.59 µM [rising, partial curve].

On to `COc1ccc(CCNC(=O)CC2SC(=Nc3cc(C)cc(C)c3)NC2=O)cc1OC` (stereo not drawn), for which the cell number change was 22.7%. Moreover, the half-maximal activity concentration (AC50) under setting [1] is 11.6 µM [rising, partial curve]. Consider `O=C(Nc1ccccc1)c1ccccc1Oc1ccc(C(F)(F)F)cc1[N+](=O)[O-]`, for which the cell number change came to 98.7%. Moreover, the half-maximal activity concentration (AC50) under setting [2] is 4.11 µM [rising, full curve]. Besides, under setting [1], the AC50 is 7.31 µM [rising, partial curve].

Turning to `O=C1CCCC(O)=C1N=Nc1c(Cl)cc(C(F)(F)F)cc1Cl`, the cell number change is -27.1%. Also, under setting [1], the concentration at half-maximal activity (AC50) is 16.4 µM [falling, single point]. As for `COc1cc(C)nc(NS(=O)(=O)c2ccc(C)cc2)n1`, the cell number change is -17.5%. Regarding `CSCCC(NS(=O)(=O)c1cccc(C(F)(F)F)c1)C(=O)N(C)CCOc1ccc(Cl)cc1` (stereo not drawn), the cell number change came out at 22%. Besides, the AC50 under setting [1] is 29.1 µM [rising, single point]. Regarding `CC(=O)c1c(C)[nH]c(C(=O)Nc2cc(C)ccc2C)c1C`, the cell number change was -8.97%. The half-maximal activity concentration (AC50) under setting [1] is 0.00517 µM [rising, full curve, poor fit]. Regarding `CCOc1cc(/C=C2\SC(=NC)N(C)C2=O)c(Br)cc1OC(C)=O`, the cell number change was -26.9%. Also, the half-maximal activity concentration (AC50) under setting [1] was 20.6 µM [falling, single point].
